Assay results taken from paper PMC12077264.
Residue numbers refer to the chain shown, from its start. These are yes or no findings as the source states them, for the method shown. Binding seen in cells or lysates may run through a third protein. A result given as binding can be weak or reduced; the word gives no strength. Sequences can lack the tags named with a protein.

Chains of the proteins cited; added tags and fusions are not shown. Lines headed by an entry give the natural chain unless they say otherwise; changes in a name come on top.
UniProt P69490: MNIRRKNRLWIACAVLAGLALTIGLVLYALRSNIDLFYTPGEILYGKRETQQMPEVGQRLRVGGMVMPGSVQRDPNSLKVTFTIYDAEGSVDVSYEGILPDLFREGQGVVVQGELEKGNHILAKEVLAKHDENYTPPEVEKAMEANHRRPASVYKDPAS

Tests used:
Test in all cases: pull-down; GST affinity purification via the N-terminal GST tag on CcmC of co-expressed GST:CcmCDE(H130A) or GST:CcmC(D:flag)E(H130A) from E. coli; 5 ug affinity purified protein on SDS-PAGE, Coomassie stain and α-GST, α-CcmE, α-FLAG immunoblots
[1] = molecular target: T1, GST:CcmC(L227C), in GST:CcmCDE(H130A) (E. coli) (UniProt P0ABM1)
T1 sequence: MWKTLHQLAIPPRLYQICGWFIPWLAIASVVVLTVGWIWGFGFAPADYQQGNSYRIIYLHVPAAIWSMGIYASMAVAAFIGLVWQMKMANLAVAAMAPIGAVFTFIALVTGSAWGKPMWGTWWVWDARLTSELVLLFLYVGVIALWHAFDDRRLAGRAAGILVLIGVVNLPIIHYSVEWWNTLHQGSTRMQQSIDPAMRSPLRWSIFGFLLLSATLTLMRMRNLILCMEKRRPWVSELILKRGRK

[2] = molecular target: T2, GST:CcmC(A101C), in GST:CcmCDE(H130A) (E. coli) (UniProt P0ABM1)
T2 sequence: T1 sequence with A101C, C227L

[3] = molecular target: T3, GST:CcmC(I143C), in GST:CcmCDE(H130A) (E. coli) (UniProt P0ABM1)
T3 sequence: T1 sequence with I143C, C227L

Measured: binding

CcmE(H130A) (from UniProt P69490)
binds: [1] | [2] | [3]
